Data: publication PMC8158924

Sequences of proteins named here, by UniProt entry; tags and fusion partners are left off. A change or cut given only in a name is not applied to a line headed by its entry. A line that says so, or that is headed by a name, gives the form on record, which may keep a tag or linker.
myc-tagged FMNL2 C-terminal fragment (aa 521-1092) (Q96PY5-3, form named): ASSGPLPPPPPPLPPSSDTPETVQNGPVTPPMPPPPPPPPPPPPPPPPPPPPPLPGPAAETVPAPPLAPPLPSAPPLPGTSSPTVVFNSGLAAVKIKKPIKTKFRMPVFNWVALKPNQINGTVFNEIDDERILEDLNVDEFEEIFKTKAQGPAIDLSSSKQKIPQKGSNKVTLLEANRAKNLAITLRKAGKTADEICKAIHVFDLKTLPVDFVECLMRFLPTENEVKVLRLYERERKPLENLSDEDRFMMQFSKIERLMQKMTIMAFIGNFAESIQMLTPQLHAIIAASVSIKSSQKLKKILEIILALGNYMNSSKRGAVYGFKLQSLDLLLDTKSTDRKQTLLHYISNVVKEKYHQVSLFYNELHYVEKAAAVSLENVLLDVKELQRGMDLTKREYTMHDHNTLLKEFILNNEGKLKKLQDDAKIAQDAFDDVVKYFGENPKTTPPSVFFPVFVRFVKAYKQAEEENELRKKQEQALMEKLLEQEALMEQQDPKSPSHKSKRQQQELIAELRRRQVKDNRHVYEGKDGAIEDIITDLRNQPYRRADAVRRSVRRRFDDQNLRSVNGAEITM

Molecular target: flag-tagged N-terminal FMNL2 (aa 23-484) with an alanine mutation at position L136 (human) (UniProt Q96PY5)
Assay: co-IP; HEK-293T cells co-transfected; lysis in Tris 20 mM, NaCl 150 mM, EDTA 2 mM, Triton-X-100 0,1% with protease inhibitors; flag-NT precipitated on Flag-M2 agarose beads, 1 hour at 4°C, three washes; immunoblot of the co-expressed partner (myc-CT or GFP-Cdc42)

Question: “myc-tagged FMNL2 C-terminal fragment (aa 521-1092) (from UniProt Q96PY5-3 521-1092) (domain or fragment)” was tested. Which binding did it give?
Answer: binds

These are yes or no findings as the source states them, for the method shown. In cells and extracts the contact can be indirect. Binding can be weak; no strength is given.
